Experimental findings from the supplement of paper PMC8007513 are described below.

This is one part of the list. Most values come without repeats; read them as rough.

The assay concerns Saccharomyces cerevisiae BY4743. In words: growth (OD600) with compound + IPBC relative to untreated control; higher = less growth inhibition. As to conditions: compound concentration: 133 uM; IPBC concentration: 0.5 ug/ml; 20 h. Here is the method:
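NMCCC compounds (133 uM) combined with IPBC (0.5 ug/ml) against Saccharomyces cerevisiae BY4743 in YPD, 96-well plates. Growth was read as OD600 at 20 h and expressed as % of the untreated control. Single pass.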
Turning to `CCC1CCCCN1C(=O)COC(=O)c1[nH]c(C)c(C(C)=O)c1C` (configuration not stated) + CCCCNC(=O)OCC#CI [3-iodo-2-propynyl butylcarbamate (IPBC)], the growth worked out at 71.9%.
Regarding `CN(CC(=O)NC1=CC=CC=C1Cl)C(=O)CN2\N=C/C(=O)C3=CC=CC=C23` + CCCCNC(=O)OCC#CI [3-iodo-2-propynyl butylcarbamate (IPBC)], the growth amounted to 92.6%.
As for `Cc1nn(C)c(C)c1NS(=O)(=O)c1cccc(C#N)c1` + CCCCNC(=O)OCC#CI [3-iodo-2-propynyl butylcarbamate (IPBC)], the figure is 99.9%; as for `CCOC(=O)N1CCN(c2ccc(S(N)(=O)=O)cn2)CC1` + CCCCNC(=O)OCC#CI [3-iodo-2-propynyl butylcarbamate (IPBC)], 112%; as for `CCCC(=O)N\C1=C(\C(=O)C2=CC=CC=C2N1CC)C3=CC=CS3` + CCCCNC(=O)OCC#CI [3-iodo-2-propynyl butylcarbamate (IPBC)], 88.9%.
As for `Cc1ccccc1-c1nnc(SCC(=O)NCC2CCCO2)o1` (configuration not stated) + CCCCNC(=O)OCC#CI [3-iodo-2-propynyl butylcarbamate (IPBC)], the growth was 102%.
For `CCOc1cccc(CC(=O)Nc2nc3ccc(Cl)cc3o2)c1OCC` + CCCCNC(=O)OCC#CI [3-iodo-2-propynyl butylcarbamate (IPBC)], the growth came out at 97.9%.
For `CCc1nnc(NC(=O)C(=O)c2cc(C)n(-c3ccc(F)cc3)c2C)s1` + CCCCNC(=O)OCC#CI [3-iodo-2-propynyl butylcarbamate (IPBC)] the value was 99.3%; for `CCOC(=O)c1c(-c2ccc(OC)cc2)csc1NC(=O)CN(C)CC(=O)N(C)C` + CCCCNC(=O)OCC#CI [3-iodo-2-propynyl butylcarbamate (IPBC)], 98.4%; for `CCCNC(=O)CN1\C(=C/C(=O)[N]2N=C(N=C12)C3=CC=CC=C3C)C` + CCCCNC(=O)OCC#CI [3-iodo-2-propynyl butylcarbamate (IPBC)], 110%.
As for `Cc1nc2ccccc2n1CCNC(=O)c1ccccc1Cl` + CCCCNC(=O)OCC#CI [3-iodo-2-propynyl butylcarbamate (IPBC)], the figure is 98.2%; as for `CC(C)CN1\C=C(\NC(=O)NCC2CCCO2)C3=CC=CC=C3C1=O` (configuration not stated) + CCCCNC(=O)OCC#CI [3-iodo-2-propynyl butylcarbamate (IPBC)], 105%.
As for `CCC(C)C1=CC=C(NC(=O)\C2=C\C3=CC=CC=C3C(=O)O2)C=C1` (configuration not stated) + CCCCNC(=O)OCC#CI [3-iodo-2-propynyl butylcarbamate (IPBC)], the figure is 93.9%.
Consider `COc1ccc(-c2cc(C(=O)NCc3nccn3C)on2)cc1` + CCCCNC(=O)OCC#CI [3-iodo-2-propynyl butylcarbamate (IPBC)], for which the growth was 85.3%.
In the case of `CCC(C)(CNC(=O)c1cc(Br)c(Br)s1)N1CCOCC1` (configuration not stated) + CCCCNC(=O)OCC#CI [3-iodo-2-propynyl butylcarbamate (IPBC)], the growth is 114%.
With `CC(Oc1ccc(Cl)cc1Cl)C(=O)Nc1ccc(S(=O)(=O)N2CCOCC2)cc1` (configuration not stated) + CCCCNC(=O)OCC#CI [3-iodo-2-propynyl butylcarbamate (IPBC)], the growth amounted to 101%.
In the case of `CCOC(=O)Cn1c2ccc(F)cc2c2nc(C)sc21` + CCCCNC(=O)OCC#CI [3-iodo-2-propynyl butylcarbamate (IPBC)], the growth is 79.9%.
Take `CC(C)C[C@H](NC(=O)N1CCc2ccccc21)C(=O)O` + CCCCNC(=O)OCC#CI [3-iodo-2-propynyl butylcarbamate (IPBC)]: the growth was found to be 87.6%.
As for `COc1cccc(C2/C(=C(\O)OC(C)(C)C)C(C)=Nc3nnnn32)c1` (configuration not stated) + CCCCNC(=O)OCC#CI [3-iodo-2-propynyl butylcarbamate (IPBC)], the figure is 104%; as for `Cc1ccc(-c2nc(CC(=O)OCC(=O)c3ccc[nH]3)cs2)cc1` + CCCCNC(=O)OCC#CI [3-iodo-2-propynyl butylcarbamate (IPBC)], 100%.
For `Cc1cc(C(=O)CSc2ncccn2)c(C)n1-c1cccc(F)c1` + CCCCNC(=O)OCC#CI [3-iodo-2-propynyl butylcarbamate (IPBC)] the value was 98.7%; for `CCn1c(C)cc(C(=O)CSc2n[nH]c(N)n2)c1C` + CCCCNC(=O)OCC#CI [3-iodo-2-propynyl butylcarbamate (IPBC)], 110%.
